According to the supplement of paper PMC12819154, “High-throughput peptide-centric local stability assay extends protein–ligand identification to membrane proteins, tissues and bacteria” (Nature Structural & Molecular Biology, 2025):
The list shows a part of the results. Most values lie at the level of the controls, where differences are scatter.

Protein sequences, listed by entry. Tags and fused reporters are not part of them. Lines headed by an entry give the natural chain unless they say otherwise; changes in a name come on top.
UniProt Q9CQ90: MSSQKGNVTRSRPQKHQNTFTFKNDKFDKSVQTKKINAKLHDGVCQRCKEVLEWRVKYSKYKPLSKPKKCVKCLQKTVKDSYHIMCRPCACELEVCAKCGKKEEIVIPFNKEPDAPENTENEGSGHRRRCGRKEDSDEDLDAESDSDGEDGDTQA
UniProt Q9CPZ8: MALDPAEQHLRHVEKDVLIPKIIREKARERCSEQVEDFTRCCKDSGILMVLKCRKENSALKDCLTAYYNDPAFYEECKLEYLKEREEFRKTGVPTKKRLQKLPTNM
UniProt Q99PG0: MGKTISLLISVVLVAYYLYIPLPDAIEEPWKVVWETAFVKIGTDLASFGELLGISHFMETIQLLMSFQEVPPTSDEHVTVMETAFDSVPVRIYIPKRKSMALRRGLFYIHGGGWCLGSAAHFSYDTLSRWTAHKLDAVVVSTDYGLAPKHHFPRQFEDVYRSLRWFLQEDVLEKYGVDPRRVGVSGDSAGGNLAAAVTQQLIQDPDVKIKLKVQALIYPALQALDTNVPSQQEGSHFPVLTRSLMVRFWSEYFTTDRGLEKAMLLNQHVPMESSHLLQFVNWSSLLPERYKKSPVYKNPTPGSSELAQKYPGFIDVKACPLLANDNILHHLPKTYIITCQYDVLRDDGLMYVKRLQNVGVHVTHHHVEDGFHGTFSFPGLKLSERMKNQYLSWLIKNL
UniProt Q9CPV3: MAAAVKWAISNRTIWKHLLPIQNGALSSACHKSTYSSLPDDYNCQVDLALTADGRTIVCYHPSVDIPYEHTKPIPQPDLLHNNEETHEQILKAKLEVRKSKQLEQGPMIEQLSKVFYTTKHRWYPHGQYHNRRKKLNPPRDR

Each target was assayed with CN[C@@H]1C[C@H]2O[C@@](C)([C@@H]1OC)n1c3ccccc3c3c4c(c5c6ccccc6n2c5c31)C(=O)NC4 [staurosporine] (assay: log2 fold change of tryptic peptide abundance, ligand vs vehicle (limited proteolysis) (log2 ratio); higher = more trypsin-susceptible (destabilized)). Details: ligand concentration: 20 uM; sample: mouse liver crude lysate; replicate design: treated separately.

Target	log2 fold change
UniProt Q9CQ90 (peptide sequence: CKEVLEWR, peptide start residue: 48)	-0.189
UniProt Q9CPZ8 (peptide sequence: ERCSEQVEDFTR, peptide start residue: 29)	-0.55
UniProt Q99PG0 (peptide sequence: ACPLLANDNILHHLPK, peptide start residue: 318)	-0.494
UniProt Q9CPV3 (peptide sequence: WYPHGQYHNRR, peptide start residue: 123)	0.112
